The source of these data is article PMC4559378.

The chains behind the UniProt entries cited, without tags or fusion partners.
UniProt Q28009: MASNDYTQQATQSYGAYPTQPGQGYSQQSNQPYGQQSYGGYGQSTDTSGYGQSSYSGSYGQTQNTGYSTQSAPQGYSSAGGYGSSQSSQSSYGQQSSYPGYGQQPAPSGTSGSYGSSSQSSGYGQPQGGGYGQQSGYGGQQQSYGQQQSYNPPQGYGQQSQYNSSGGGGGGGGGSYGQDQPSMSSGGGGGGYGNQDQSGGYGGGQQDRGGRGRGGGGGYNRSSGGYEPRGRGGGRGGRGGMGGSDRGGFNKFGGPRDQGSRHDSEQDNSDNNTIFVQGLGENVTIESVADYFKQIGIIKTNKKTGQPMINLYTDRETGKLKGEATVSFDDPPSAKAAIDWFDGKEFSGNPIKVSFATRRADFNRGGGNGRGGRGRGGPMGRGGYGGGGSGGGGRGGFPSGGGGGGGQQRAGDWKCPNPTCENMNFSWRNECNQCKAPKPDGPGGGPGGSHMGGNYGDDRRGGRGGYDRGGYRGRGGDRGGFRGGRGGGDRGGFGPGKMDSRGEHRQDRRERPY

This experiment addresses FUS (fused in sarcoma/translocated in liposarcoma), endogenous in bovine brain tissue (bovine (endogenous in bovine brain tissue)) (UniProt Q28009). Put plainly: affinity purification with mass spectrometry; immunopurification with a FUS-specific monoclonal antibody from bovine brain tissue, coupled to mass spectrometry.

These are yes or no findings as the source states them, for the method shown. In cells and extracts the contact can be indirect. Here binding means that the protein was enriched with, or labelled near, the bait; the list need not be complete.

B1: HSP60, endogenous in bovine brain tissue (protein, UniProt P31081 27-573)
chain: AKDVKFGADARALMLQGVDLLADAVAVTMGPKGRTVIIEQSWGSPRVTKDGVTVAKSIDLKDKYKNIGAKLVQDVANNTNEEAGDGTTTATVLARSIAKEGFEKISKGANPVEIRRGVMLAVDAVIVELKKQSKPVTTPEEIAQVATISANGDKEIGNIISDAMKKVGRKGVITVKDGKTLNDELEIIEGMKFDRGYISPYFINTSKGQKCEFQDAYVLLSEKKISSVQSIVPALEIANAHRKPLVIIAEDVDGEALSTLVLNRLKVGLQVVAVKAPGFGDNRKNQLKDMAIATGGAVFGEEGLNLNLEDVQPHDLGKVGEVIVTKDDAMLLKGKGDKAQIEKRIQEIIEQLDITTSEYEKEKLNERLAKLSDGVAVLKVGGTSDVEVNEKKDRVTDALNATRAAVEEGIVLGGDCALLRCIPALESITPANEDQKTGIEIIKKTLKIPAMTIAKNAGVEGSLIVEKIMQSSSEVGYDAMLGDFVNMVEKGIIDPTKVVRTALLDAAGVASLLTTAEVVVTEIPKEEKDPGMGGMGGMGGGMGGGMF
Take B1: the binding result was “binds”.
